Where a name gives a salt, the structure may show the parent alone. This is one part of the list. Repeats in this data set agree poorly, so a single value says little.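 In a drug-repurposing library screen, luminescence reads luciferase driven by eight TEAD-binding elements, stably integrated into human kidney-derived cells. Compounds scoring over five robust Z scores above the plate mean are called hits.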
System: HEK293A TEAD-LUC reporter
Test: TEAD-luciferase reporter activity (YAP activation), robust Z score vs plate; higher = stronger YAP/TEAD activation
Conditions: 24 h

SMILES | TEAD-luciferase reporter activity (compound concentration: 200 nM) | TEAD-luciferase reporter activity (compound concentration: 2 uM) | TEAD-luciferase reporter activity (compound concentration: 10 uM)
CN(C)CCc1c[nH]c2cccc(OP(=O)(O)O)c12 | inactive: -0.664 | inactive: -0.0994 | inactive: 0.691
CCOC(=O)c1ncn2c1CN(C)C(=O)c1c(I)cccc1-2 | inactive: 2.12 | inactive: 0.0851 | inactive: -0.542
Cc1nn(C)c2c1C(c1cccc(Cl)c1)=NCCN2 [zometapine] | inactive: -1.89 | inactive: -2.25 | inactive: 2.72
CCc1ccc(C2CCNCC2)cc1 [enefexine] | inactive: 0.558 | inactive: 0.536 | inactive: 1.97
CN1Cc2c(-c3noc(C4CC4)n3)ncn2-c2ccccc2C1=O | inactive: -1.48 | inactive: -0.451 | inactive: -1.05
C=CCN1CC[C@]23c4c5ccc(O)c4O[C@H]2C(=O)CC[C@@]3(O)[C@H]1C5 | inactive: -0.704 |  | inactive: 2.79
C=CCN1CC[C@]23c4c5ccc(O)c4O[C@H]2C(=O)CC[C@@]3(O)[C@H]1C5 [naloxone HCl] |  | inactive: -0.863 | 
C[C@H](Cc1ccc2c(c1)OC(C(=O)O)(C(=O)O)O2)NC[C@H](O)c1cccc(Cl)c1 | inactive: 2.97 | inactive: -0.0268 | inactive: 0.345
OC[C@H]1O[C@@H](n2cnc3cc(Cl)c(Cl)cc32)[C@@H](O)C1O (stereo not given in full) | inactive: -1.82 | inactive: -0.248 | active: 6.54
C[C@]1(O)CC[C@H]2[C@@H]3CCC4=CC(=O)CCC4=C3C=C[C@@]21C | inactive: -0.997 | inactive: 1.42 | inactive: 1.05
NC(=O)C(CCN1CCN2CCCC2C1)(c1ccccc1)c1ccccc1 (stereo not given) | inactive: -1.06 | inactive: -0.288 | inactive: 0.194
NP(N)(=O)NC(=O)c1ccc(F)cc1 [flurofamide] | inactive: 2.62 | inactive: -1.72 | inactive: 0.747
Cc1ncc2n1-c1ccc(Cl)cc1C(c1ccccc1F)=NC2 [Midazolam Hydrochloride] | inactive: -2.4 |  | inactive: 2.58
c1cn(-c2cc(NC3=NCC4(CN5CCC4CC5)O3)ncn2)cn1 (stereo not given) | inactive: 0.844 | inactive: -0.0678 | inactive: 3.91
CN1C(=O)CN=C(C2=CCCCC2)c2cc(Cl)ccc21 | inactive: -0.357 | inactive: 0.185 | inactive: -0.343
CCN(CC)CCN1C(=O)[C@](O)(c2ccccc2Cl)c2c1cc(C(N)=O)cc2C(F)(F)F | inactive: -1.19 | inactive: 1.16 | inactive: -0.266
CCC1(CC)C(=O)NC(=S)NC1=O | inactive: -0.464 | inactive: -1.47 | inactive: -0.052
O=C(O)C(=O)CBr [3-Bromopyruvate] | inactive: 0.124 | inactive: -0.278 | inactive: -1.37
CCCC[C@H]1CC[C@H](C(=O)O[C@H]2CCC3C4CCC5=CC(=O)CCC5(C)C4CCC32C)CC1 (stereo not given in full) [Testosterone buciclate] | inactive: -0.412 | inactive: -0.691 | inactive: -0.81
CC(=O)OC1CC(OC2C(O)CC(OC3C(O)CC(OC4CCC5(C)C(CC[C@@H]6[C@@H]5CCC5(C)C(C7=CC(=O)OC7)CCC65O)C4)OC3C)OC2C)OC(C)C1OC1OC(CO)C(O)C(O)C1O (stereo not given in full) | active: 16 | inactive: -2.21 | active: 16.5
O=[N+]([O-])[O][Ga]([O][N+](=O)[O-])[O][N+](=O)[O-] [Gallium(III) nitrate hydrate] | inactive: 2.55 | inactive: 2.39 | inactive: -0.73
CN1C(=O)C(O)N=C(c2ccccc2F)c2cc(Cl)ccc21 (stereo not given) | inactive: -1.38 | inactive: 0.179 | inactive: -1.17
CN1C(=O)CCS(=O)(=O)C1c1ccc(Cl)cc1 (stereo not given) [Chlormeza] | inactive: -1.39 | inactive: -0.968 | inactive: -1.18
[N-]=[N+]=CC(=O)CC[C@H](N)C(=O)O | inactive: -0.0803 | inactive: -1.64 | inactive: -0.238
CN(C)C(=O)Oc1ccc2c(c1)[nH]c(=O)c1c3ccc(OC(=O)N(C)C)cc3oc21 | inactive: 0.301 | inactive: -1.58 | inactive: 1.18
CCN[C@@H](C)Cc1cccc(C(F)(F)F)c1 [(+)-Fenfluramine hydrochloride] | inactive: -1.45 |  | inactive: -0.0472
O=C(OC1c2nccnc2C(=O)N1c1ccc(Cl)cn1)N1CCNCC1 (stereo not given) | inactive: 0.464 | inactive: -0.268 | inactive: -0.342
O=C1C=C(N2CC2)C(=O)C(N2CC2)=C1N1CC1 | inactive: -1.23 | inactive: -1.28 | inactive: -0.253

SMILES | TEAD-luciferase reporter activity (compound concentration: 200 nM) | TEAD-luciferase reporter activity (compound concentration: 2 uM) | TEAD-luciferase reporter activity (compound concentration: 10 uM)
O=C(NC(=O)c1cc(F)c(F)cc1Cl)Nc1ccc(C(=O)O)cc1OC(F)(F)F | inactive: 2.93 | inactive: -1.07 | inactive: -0.889
COC1CC(=C(c2cccs2)c2cccs2)C[N+](C)(C)C1 (stereo not given) | inactive: 0.315 | inactive: -0.687 | inactive: 1.66
COP(=S)(OC)Oc1ccc(S(=O)(=O)N(C)C)cc1 [Famphur] | inactive: -1.24 | inactive: -0.325 | inactive: -0.646
CN1CC=C(c2c[nH]c3ccccc23)CC1 | inactive: 0.349 | inactive: -1.14 | inactive: 0.889
CCOC(=O)[C@H](Cc1ccc(F)cc1)NC(=O)[C@@H](N)Cc1ccc(N(CCCl)CCCl)cc1 | inactive: -0.44 | inactive: 0.825 | inactive: -2.33
CC1COC(c2cccc(C(F)(F)F)c2)CN1 (stereo not given) | inactive: 1.48 | inactive: 0.571 | inactive: 1.53
CCN(CC)CCNC(=O)C(O)(c1ccccc1)c1ccccc1 | inactive: 3.59 | inactive: -0.686 | inactive: -0.186
COC(=O)[C@]12CN(C)C[C@](C(=O)OC)(C1=O)[C@@H](c1ccccn1)N(C)[C@H]2c1ccccn1 | inactive: -0.897 | inactive: -1.45 | inactive: -0.426
C=CCC1(CC(C)O)C(=O)NC(=O)NC1=O (stereo not given) | inactive: -1.08 | inactive: -1.21 | inactive: 2.55
C[N+]1(C)C2C=CC1CC(OC(=O)C(O)(c1cccs1)c1cccs1)C2 (stereo not given) | inactive: -1.71 | inactive: -1.1 | inactive: 1.55
CN(C)CCc1ccc(O)cc1 | inactive: -0.509 | inactive: 3.67 | inactive: -0.221
CC(N)C(=O)NC(CO)C(=O)NC(C(=O)NC(C(=O)NC(C(=O)NC(CC(N)=O)C(=O)NC(Cc1ccc(O)cc1)C(=O)NC(C(=O)O)C(C)O)C(C)O)C(C)O)C(C)O (stereo not given) [Peptide T] | inactive: 0.885 | inactive: -1.4 | inactive: 0.992
ClCC[N+]12CC[N+](CCCl)(CC1)C2 [DABIS maleate] | inactive: -1.4 | inactive: 2.12 | inactive: 0.775
COC(=O)CC[C@@H]1N=C(c2ccccn2)c2cc(Br)ccc2-n2c(C)cnc21 [remimazolam tosylate] | inactive: 1.53 | inactive: -0.466 | inactive: -0.55
CO[C@H]1[C@@H](O)C[C@H](O[C@H]2[C@@H](O)C[C@H](O[C@H]3[C@@H](O)C[C@H](O[C@H]4CC[C@@]5(C)[C@H](CC[C@@H]6[C@@H]5C[C@@H](O)[C@]5(C)[C@@H](C7=CC(=O)OC7)CC[C@]65O)C4)O[C@@H]3C)O[C@@H]2C)O[C@@H]1C [Metildigoxin] | active: 8.48 | inactive: -2.66 | active: 11.5
CCCC[C@@H](NC(=O)[C@@H](Cc1ccccc1)NC(=O)[C@H](N)Cc1ccccc1)C(=O)N[C@H](CCCNC(=N)N)C(=O)NCc1ccncc1 | inactive: -0.656 | inactive: -0.272 | inactive: 0.105
Cc1cccc(C)c1NC(=O)CN1CCCC1=O [Nefiracetam] | inactive: -0.605 | inactive: -2.69 | active: 7.89
FC(F)(F)c1ccc2c(c1)[C@@H]1CNC[C@H]2C1 | inactive: -0.518 | inactive: -0.638 | inactive: -1.95
CNS(=O)(=O)Cc1ccc2[nH]cc(C[C@H]3CCCN3C)c2c1 | inactive: -1.12 | inactive: -0.00845 | inactive: 4.93
NC(=O)OC[C@H](N)Cc1ccccc1 | inactive: 0.219 | inactive: -1.24 | inactive: -1.02
CO[C@H]1[C@@H](O)[C@@H](C)O[C@H](O[C@H]2[C@H](Oc3cccc4c(O)c5c(=O)oc6ccc(C)c7c(=O)oc(c34)c5c67)O[C@H](C)[C@H](O)[C@@H]2O)[C@@H]1O | inactive: 3.8 | inactive: -1.17 | inactive: 3.4
C=C(C(=O)OC1CC2CCC(C1)N2C)c1ccccc1 (stereo not given) | inactive: -1.24 | inactive: -0.0651 | inactive: -1.33
O=C(O)C(Cl)(Cl)Cl | inactive: 3.87 | inactive: -0.861 | inactive: 1.03
O=P1(N(CCCl)CCCl)NC(OO)CCO1 (stereo not given) [perfosfamide] | inactive: -1.02 | inactive: 0.0514 | inactive: -0.777
O=c1c2ccccc2[se]n1-c1ccccc1 [ebselen] | inactive: -0.417 | inactive: -0.385 | inactive: 0.677
O=C1CN=C(c2ccc[nH]2)c2cc(Cl)ccc2N1 | inactive: -1.57 | inactive: -3 | inactive: -0.0691
CC[C@@H](C(=O)Oc1c(OC)cc(C)cc1OC)N(CCOC)CCOC | inactive: -1.18 | inactive: -0.875 | inactive: 1.13

Fetched one by one from the list above, three records:
SMILES | TEAD-luciferase reporter activity (compound concentration: 200 nM) | TEAD-luciferase reporter activity (compound concentration: 2 uM) | TEAD-luciferase reporter activity (compound concentration: 10 uM)
CC[C@@H](C(=O)Oc1c(OC)cc(C)cc1OC)N(CCOC)CCOC | inactive: -1.18 | inactive: -0.875 | inactive: 1.13
COC(=O)CC[C@@H]1N=C(c2ccccn2)c2cc(Br)ccc2-n2c(C)cnc21 [remimazolam tosylate] | inactive: 1.53 | inactive: -0.466 | inactive: -0.55
O=C1CN=C(c2ccc[nH]2)c2cc(Cl)ccc2N1 | inactive: -1.57 | inactive: -3 | inactive: -0.0691

Source: the supplement of paper PMC10735217
